Reference: PubChem BioAssay AID504444 (National Center for Advancing Translational Sciences (NCATS), 2011)
Several values for one entry are separate records, joined by “and”; a condition that tells them apart may be missing. Equal values may be shown once. Hit rate of the full screen: of about 360,000 compounds, about 7,500 (2.1%) were called active. This list was built around the results that the source calls inconclusive (neither active nor inactive); the mix of calls is not that of the screen. Calls follow the shape of the dose curve; as a rule, active = well fitted inhibition curve with a large enough effect; inconclusive = small, poorly fitted or top-dose-only effect, or effect the other way; inactive = flat fitted curve, though single readings scatter. Potencies beside an inconclusive call are fits to weak or partial responses and may not hold up. More than one record can exist for a structure, and the calls need not agree.

Assay: Nrf2 qHTS screen for inhibitors; also: nearly all actives have a fitted effect of over 60% in size
Settings: A549 ARE-Fluc reporter, luciferase luminescence, 18-24 h; series mostly up to 46 µM
How it was run: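 Two sequential reads on A549 ARE_Fluc cells exposed to compound for 18-24 h: a CellTiter-Fluor fluorescence read for viability, then a luciferase luminescence read for Nrf2/ARE activity.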
Potency is read from the fitted curve at half-maximal effect.

Structure (SMILES)	Potency
COc1cccc(NC(=O)C2CC2(c2cccc(OC)c2)c2cccc(OC)c2)c1 (stereo not drawn)	inconclusive: 29.1 µM [falling, single point]
O=C1C=C(c2ccc(F)cc2OCc2ccccc2)C[C@@H](c2ccc3c(c2)OCO3)C1	inconclusive: 13 µM [falling, partial curve, poor fit]
O=C(CSC1=NCCS1)Nc1ccc(F)cc1	inconclusive: 32.6 µM [activator, single point]
CC(C)CN1C(=O)c2ccc(NC(=O)c3ccccc3F)cc2C1=O	inactive
COC(=O)c1c(-c2cccs2)csc1NC(=O)CSc1ncnc2sc(C)c(C)c12	inconclusive: 9.2 µM [falling, partial curve, poor fit]
CC1(C)CCN2CCC(C)(C)c3c(O)ccc1c32	inconclusive: 18.4 µM [falling, partial curve, poor fit]
O=C(NCc1nnnn1-c1ccc(F)cc1)c1ccc([N+](=O)[O-])o1	inactive
CC1CCN(S(=O)(=O)c2ccc3c(c2)N(CC(=O)N(C)Cc2ccco2)C(=O)CO3)CC1	inconclusive: 29.1 µM [falling, single point]
CCCC(=O)Nc1ccc(-c2nc3cc(C)c(C)cc3o2)cc1	inconclusive: 2.91 µM [activator, partial curve]
Cn1ncc(C(=O)N2CCN(c3ccc(F)cc3)CC2)c1C1CCN(C(=O)OC(C)(C)C)CC1	inconclusive: 16.4 µM [activator, single point]
CCCN1C(=O)C(Cc2nc3ccccc3c(=O)n2-c2cccc(C)c2)c2ccccc21 (stereo not drawn)	inconclusive: 32.6 µM [falling, partial curve, poor fit]
Cc1nc(SCc2cccc(C(=O)O)c2)nc2c1CCCC2	inconclusive: 1.84 µM [falling, full curve, poor fit]
CCOC(=O)c1ccccc1NC(=O)c1ccc(Cl)c(S(=O)(=O)N2CCOCC2)c1	inconclusive: 6.51 µM [falling, single point]
Cc1cccc(NS(=O)(=O)c2ccc(Oc3ccccc3)cc2)n1	inconclusive: 16.4 µM [falling, partial curve]
Cc1cc(-n2[nH]c(C)c(C)c2=O)nc(-c2ccccc2O)n1	inconclusive: 29.1 µM [falling, single point]
N#Cc1ccc(OCC(=O)Nc2ccccc2NS(=O)(=O)c2cccs2)cc1	inactive
O=C(Nc1ccc(F)cc1F)N1CCCC(c2nc(-c3ccc(F)cc3)no2)C1 (stereo not drawn)	inconclusive: 23.1 µM [falling, single point]
CCCCNC(=O)COC(=O)c1ccc(Cl)c(S(N)(=O)=O)c1	inactive
COc1nc(-c2ccc(C)cc2)ccc1-c1noc(-c2ccco2)n1	inconclusive: 29.1 µM [activator, single point]
CCCSc1nsc(NC(=O)CCC)n1	inconclusive: 1.64 µM [activator, full curve]
CC(C)(C)OC(=O)N1CCC(c2nnc(SCc3ccccc3)o2)CC1	active: 11.6 µM

A few values from above.
Potency, CCOC(=O)c1ccccc1NC(=O)c1ccc(Cl)c(S(=O)(=O)N2CCOCC2)c1 reads inconclusive: 6.51 µM [falling, single point]
Potency, N#Cc1ccc(OCC(=O)Nc2ccccc2NS(=O)(=O)c2cccs2)cc1 reads inactive

(more compounds)

Structure (SMILES)	Potency
COC(=O)N1C(=O)[C@](c2ccccc2)(C2CCCCC2)N1C(=O)OC	inconclusive: 20.6 µM [activator, single point]
Cc1ccc(NC(=O)c2ccc(NCCc3ccccc3)c([N+](=O)[O-])c2)cc1F	inconclusive: 25.9 µM [falling, single point]
COc1ccc(NC(=O)CCNC(=O)N2CC(=O)Nc3ccccc32)c(OC)c1	inconclusive: 32.6 µM [activator, partial curve, poor fit]
O=c1c2ccccc2sn1-c1ccc(F)cc1	inactive
COc1ccc(-c2noc(-c3ccc(N4CCCCC4C)c([N+](=O)[O-])c3)n2)cc1OC (stereo not drawn)	inconclusive: 16.4 µM [activator, single point]
COc1ccccc1CNC(=O)c1ccc(N2Cc3cccc(OC)c3Oc3ncccc32)s1	inconclusive: 8.2 µM [falling, partial curve, poor fit]
COc1ccc(/C=C2\SC(=O)N(CCC(=O)N(C)C3CCS(=O)(=O)C3)C2=O)cc1 (stereo not drawn)	inconclusive: 10.3 µM [activator, partial curve]
COc1ccccc1OCCCOc1cccc(/C=C2\SC(=O)NC2=O)c1	inconclusive: 4.11 µM [falling, full curve]
Cc1ccc2[nH]cc(C(=O)CN3CCN(c4ccccc4F)CC3)c2c1	inconclusive: 0.0058 µM [falling, full curve, poor fit]
CCCn1c(=S)[nH]c2cc(C(=O)N3CCc4ccccc43)ccc2c1=O	inconclusive: 29.1 µM [falling, single point]
Cc1nc(NS(=O)(=O)c2ccccc2)sc1C(=O)NNS(=O)(=O)c1ccccc1	inactive
O=C1CN(S(=O)(=O)c2cccc(Cl)c2Cl)c2ccccc2N1	inconclusive: 5.8 µM [activator, partial curve]
CC1CCN(c2nc3ccc(C(=O)N4CCN(Cc5ccc6c(c5)OCO6)CC4)cc3s2)CC1	inconclusive: 20.6 µM [falling, single point]
COc1ccc2nc(SCC(=O)Nc3cc(C)on3)[nH]c2c1	inconclusive: 3.66 µM [activator, single point]
CC1(C)C2CCC1(C)C(NC(=O)COC(=O)c1ccc(S(C)(=O)=O)c([N+](=O)[O-])c1)C2 (stereo not drawn)	inconclusive: 16.4 µM [activator, partial curve, poor fit]
COc1cccc(C2C(C(=O)Nc3ccccc3)=C(C)Nc3nc(-c4ccccc4)nn32)c1OC (stereo not drawn)	active: 18.4 µM
COc1ccc(-c2noc(-c3ccccc3-c3ccccc3)n2)cc1	inconclusive: 6.51 µM [falling, single point]
Cc1cccc(-c2noc(-c3ccc(N4CCN(C)CC4)c([N+](=O)[O-])c3)n2)c1	inactive
C#CCOCCOCCOCCNc1nc(N2CCN(C(=O)Cn3cc(CCO)nn3)CC2)nc(N2CCN(C(=O)[C@H](CCCCN)n3cc(CCCC)nn3)CC2)n1	inactive
CC(=O)N1CCc2cc(S(=O)(=O)NCCCOC(C)C)ccc21	inconclusive: 4.61 µM [falling, full curve, poor fit]
Cc1ccc(C)c(CN2CCC(CNC(=O)c3cc4ccc5cccnc5c4[nH]3)CC2)c1	inconclusive: 23.1 µM [activator, single point]

Structure (SMILES)	Potency
COc1ccc(CNc2nc3c(c(=O)n(C)c(=O)n3C)n2Cc2ccccc2Cl)cc1	inactive
Nc1nc(N)c(C=Nc2ccc(Br)cc2)c(Nc2ccc(Br)cc2)n1	inconclusive: 25.9 µM [falling, single point]
Cc1ccnc(NC(=O)c2sc3ccccc3c2Cl)c1	inconclusive: 2.06 µM [activator, partial curve]
NNc1ccc(Cl)c(C(=O)O)c1	inconclusive: 10.3 µM [activator, partial curve]
CC(=O)Nc1cc(-c2nc3ccccc3s2)ccc1C	inconclusive: 6.51 µM [activator, partial curve, poor fit]
CCN(CC)C(=O)Cn1cnc2sc(C(=O)N3CCN(Cc4ccc5c(c4)OCO5)CC3)c(C)c2c1=O	inconclusive: 20.6 µM [falling, single point]
O=C(CN1CCN(c2ccccc2F)CC1)Nc1nnc(C(F)(F)F)s1	inconclusive: 29.1 µM [falling, single point]
NS(=O)(=O)c1ccc(NC(=O)COc2ccc(C(=O)c3ccc(F)cc3)cc2)cc1	inconclusive: 25.9 µM [falling, single point]
Cc1ccc(-c2nn3c(C)nnc3s2)cc1NC(=O)c1ccc(-c2ccc(Cl)cc2Cl)o1	inconclusive: 6.51 µM [falling, full curve, poor fit]
CCn1c(-c2ccc(S(=O)(=O)N3CCOCC3)cc2)csc1=Nc1ccc(C)c(Cl)c1	inconclusive: 2.06 µM [falling, full curve, poor fit]
CCOc1ccc(CN(C)CC(=O)Nc2cc(C)c(C)cc2[N+](=O)[O-])cc1	inconclusive: 3.66 µM [activator, partial curve, poor fit]
O=C(c1ccc2c3n(nc2c1)-c1ccc(Cl)cc1CO3)N1CCCCC1	inconclusive: 8.2 µM [activator, partial curve, poor fit]
COc1cc2cc(-c3ccc(OC)c(OC)c3C)nc(N)c2cc1OC	inconclusive: 23.1 µM [activator, partial curve]
Cc1ccc(-c2nnc(N3CCC(C)CC3)c3ccccc23)cc1C	inconclusive: 25.9 µM [falling, partial curve, poor fit]
COc1cc(C(=O)N/N=C(\Cc2ncc[nH]2)c2ccccc2)cc(OC)c1OC	active: 14.6 µM
CCS(=O)(=O)c1ccc(C=NNc2nc3ccccc3o2)cc1	inconclusive: 13 µM [activator, partial curve]
CCC1CN(C(=O)N2CCC(C(=O)NCc3ccccc3C)CC2)c2ccccc2O1 (stereo not drawn)	inconclusive: 32.6 µM [falling, single point] and inconclusive: 29.1 µM [falling, single point]
Nc1nc(Nc2ccccc2)nc(NC2CCCCC2)c1[N+](=O)[O-]	inactive
COc1nsnc1N1CCOCC1	inactive
O=C(c1ccccc1)N(C(=O)c1ccccc1)c1ncnc2c1C(c1ccccc1)c1c(ccc3ccccc13)O2 (stereo not drawn)	inactive and active: 2.91 µM
CC(C)OCCCNc1ncnc2c1[nH]c1ccccc12	active: 11.6 µM
